The results in this text go back to patent EP4793360A2.

Amino acid sequences for entries named in this document (tags omitted). Residues count along the entry.
UniProt P00742, residues 41-488: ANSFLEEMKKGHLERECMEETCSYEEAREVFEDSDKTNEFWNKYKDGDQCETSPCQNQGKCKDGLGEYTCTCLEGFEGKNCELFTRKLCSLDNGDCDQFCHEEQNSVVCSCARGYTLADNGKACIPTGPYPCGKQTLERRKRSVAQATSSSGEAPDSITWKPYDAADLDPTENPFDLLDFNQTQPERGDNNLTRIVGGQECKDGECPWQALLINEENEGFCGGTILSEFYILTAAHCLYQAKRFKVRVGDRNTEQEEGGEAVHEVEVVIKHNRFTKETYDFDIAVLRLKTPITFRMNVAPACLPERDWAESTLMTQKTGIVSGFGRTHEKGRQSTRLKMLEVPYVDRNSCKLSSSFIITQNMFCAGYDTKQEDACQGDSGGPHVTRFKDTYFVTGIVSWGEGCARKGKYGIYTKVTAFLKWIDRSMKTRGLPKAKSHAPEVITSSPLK

Assay [1] has as its target Factor X (Enzyme Research Laboratories) (UniProt P00742). Description: ELISA, Factor X coated at 1 µg/ml, absorbance at 405 nm. (In general: ELISA stands for enzyme-linked immunosorbent assay.)
Assay [2] has the same target. Description: ELISA, Factor X coated on plate (Fig. 6 legend).

These are yes or no findings as the source states them, for the method shown. Some results given as binding are weak or reduced against the parent protein; the word gives no strength.

B1: humanized B26 antibody hB26-F123e4 (antibody, human IgG4, V domains shown)
VH: QVQLVQSGPDVKKPGASVKVSCKASGYMFSDNNMDWARQAPGQGLEWMGDINTKSGGSIYNQKFKGRVIMTIDKSTGTAYMELRSLRSDDTAIYYCARRRSYGYYFDYWGQGTLVTVSS
VL: DIVLTQSQKFMSTSVGDRVSITCKASQNVGTAVAWYQQKPGQSPKALIYSASYRYSGVPDRFTGSGSGTDFTLTISNVQSEDLAEYFCQQYNSYPLTFGAGTKLEIKR
modifications: N-terminal glutamine assumed to be pyroglutamylated (Pyr(Q) at H1)
Consider B1, for which the binding result in assay [1] and in assay [2] was “binds” throughout.

B2: hB26-p15 (modified form of humanized B26 antibody) (antibody, V domains shown)
VH: QVQLVQSGPDVKKPGASVKVSCKASGYMFSDNNMDWARKAPGKGLEWMGDINTKSGGSIYNQKFKGRVIMTIDKSTGTAYMELRSLRSDDTAIYYCARRRSYGYYFDYWGRGTLVTVSS
VL: DIVLTQSQKFMSTSVGDRVSITCKASQNVGTAVAWYQQKPGQSPKALIYSASYRYSGVPDRFTGSGSGTDFTLTISNVQSEDLAEYFCQQYNSYPLTFGAGTKLEIKR
modifications: N-terminal glutamine assumed to be pyroglutamylated (Pyr(Q) at H1)
For B2, the binding result in assay [1] and in assay [2] was “binds” throughout.
